Assay results as given in paper doi:10.1101/2023.01.03.522599.
Positions count from the first letter of the chain named. In names and notes the source's numbering stands. These are yes or no findings as the source states them, for the method shown. Some entries that bind do so weakly or less than the wild type. Tags and fused reporters may be left off the sequences shown.

Protein sequences, listed by entry. Tags and fused reporters are not part of them. Lines headed by an entry give the natural chain unless they say otherwise; changes in a name come on top. Residues count along the entry.
UniProt Q9NZQ7, 239-259: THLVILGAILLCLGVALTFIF
UniProt Q9NZQ7, 19-238: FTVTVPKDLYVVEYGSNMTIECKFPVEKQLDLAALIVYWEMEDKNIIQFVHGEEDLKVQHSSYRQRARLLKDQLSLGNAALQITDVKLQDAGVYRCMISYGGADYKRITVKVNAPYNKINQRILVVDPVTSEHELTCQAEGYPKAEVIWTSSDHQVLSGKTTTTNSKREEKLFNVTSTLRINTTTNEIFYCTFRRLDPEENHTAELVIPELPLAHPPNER
UniProt Q9NZQ7, 239-290: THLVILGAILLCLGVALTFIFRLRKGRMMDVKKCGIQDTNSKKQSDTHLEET
UniProt Q9NZQ7, 260-290: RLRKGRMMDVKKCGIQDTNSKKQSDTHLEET

B1: bovine CMTM6 protein (CKLF-like MARVEL transmembrane domain-containing protein 6), BRIL fused to the C-terminus (protein, UniProt Q3ZBE8 1-182)
chain: MENGQVYRATTEAHPGPGIGPRSGLAAYFTLSRLTGFRRLKLLELVLSLLAFICEEVVSQCTLCGGLYFFEFVSCSAFLLSLLILVVYCTPVYDRVDPAKVKSSDFFITLGTGLVFFVASLTFTLTHDNTIAEIAAIVFGMLASLTYLAEFSFMLREKLKEPRPRKGEATMRREHLTEPLNA
B2: bovine CMTM6 TM2/TM3 double mutant F69A/F72A, BRIL fused to the C-terminus (protein, UniProt Q3ZBE8 1-182)
chain: B1 chain with F69A, F72A

Experiments:
Assay in all cases: pull-down
[1] = biological target: human PD-L1 transmembrane and cytosolic domains, BRIL fused to the C-terminus, C-terminally His-tagged (human) (UniProt Q9NZQ7)
[2] = biological target: human PD-L1 transmembrane domain triple mutant I243A/I247A/F257A, BRIL fused to the C-terminus, C-terminally His-tagged (human) (UniProt Q9NZQ7)
[3] = biological target: human PD-L1 cytosolic domain, BRIL fused to the C-terminus, C-terminally His-tagged (human) (UniProt Q9NZQ7)
[4] = biological target: human PD-L1 transmembrane domain mutant F259A, BRIL fused to the C-terminus, C-terminally His-tagged (human) (UniProt Q9NZQ7)
[5] = biological target: human PD-L1 transmembrane domain, BRIL fused to the C-terminus, C-terminally His-tagged (human) (UniProt Q9NZQ7)
[6] = biological target: human PD-L1 extracellular domain, BRIL fused to the C-terminus, C-terminally His-tagged (human) (UniProt Q9NZQ7)

Binder | binding [1] | binding [2] | binding [3] | binding [4] | binding [5] | binding [6]
B1 | binds | binds | no binding | binds | binds | no binding
B2 |  |  |  |  | binds | 
